{"sequences": {"note": "Protein sequences, listed by entry. Tags and fused reporters are not part of them.", "UniProt P20789, whole entry": "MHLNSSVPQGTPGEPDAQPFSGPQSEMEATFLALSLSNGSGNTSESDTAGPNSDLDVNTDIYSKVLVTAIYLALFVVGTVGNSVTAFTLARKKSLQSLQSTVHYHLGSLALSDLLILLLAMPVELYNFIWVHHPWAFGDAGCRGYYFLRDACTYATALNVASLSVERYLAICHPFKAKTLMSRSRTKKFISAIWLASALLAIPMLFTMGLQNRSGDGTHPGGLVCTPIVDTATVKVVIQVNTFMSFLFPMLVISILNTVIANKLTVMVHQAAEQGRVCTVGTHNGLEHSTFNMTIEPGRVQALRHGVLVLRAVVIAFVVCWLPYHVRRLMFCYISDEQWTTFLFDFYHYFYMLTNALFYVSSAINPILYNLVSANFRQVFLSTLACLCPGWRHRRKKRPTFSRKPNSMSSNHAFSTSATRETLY"}, "source": "patent US20170174633A1", "about": "(RESEARCH TRIANGLE INSTITUTE, priority 2014, published 2017)", "molecular_target": "T1, rNTS1 receptor (Rattus norvegicus, UniProt P20789)", "T1 construct": "expressed in transfected cells", "assay": "Calcium mobilization assay for NTS1 receptor (FLIPR assay, FlexStation II)", "type": "cell-based", "settings": "antagonism of NT induced calcium release; ± SEM", "protocol": "The binding affinities of the test compounds for the rNTS1 and rNTS2 receptors listed in Tables 1 through 4 were determined using previously reported competitive binding assays^49. […] The cells used in the binding assay were CHO-kl cells (American Type Culture Collection) engineered to over-express either the rNTS1 or rNTS2 receptor. Measures of functional agonism and antagonism were obtained by measuring changes in intensity of a calcium-sensitive fluorescent dye as an indirect measure of changes in internal calcium concentrations. These measurements were performed using a FLIPR Tetra (NTS2) or a FlexStation II plate reader for NTS1 (Molecular Devices) and were analyzed using GraphPad Prism software.\nCHO-kl-rNTS1 cells were maintained in DMEM/F12 medium supplemented with 10% fetal bovine serum (Gibco), 100 U/ml penicillin/100 ug/ml streptomycin, 100 ug/ml normocin (Invivogen), and 250 ug/ml geneticin. […] After the pre-treatment incubation, fluorescence intensity was measured on a FlexStation II fluorometric imaging plate reader (Molecular Devices). Relative fluorescence units (RFU) were measured before (20 readings) and after (40 readings) the agonist compound addition for a total 60 second read time (Excitation=485 nm, Emission=525 nm, cutoff=515 nm). […]", "note": "“And” between values parts separate entries of the source, which are not always exact repeats. Equal values may be shown once. At least one structure is not confirmed: it was looked up by name or label, or the drawing left a doubt.", "data": [{"smiles": "COc1cccc(OC)c1-c1cc(C(=O)NC2(C(=O)O)C3CC4CC(C3)CC2C4)nn1-c1ccnc2cc(Cl)ccc12", "note": "(stereo not shown) [5a, Meclinertant, reference compound]", "values": [{"measurement": "NTS1 Ke", "result": "4.7 nM and 4.7 ± 0.8 nM"}]}]}
